Reference: PMC4764323
These are yes or no findings as the source states them, for the method shown. In cells and extracts the contact can be indirect. A result given as binding can be weak or reduced; the word gives no strength.

Target: T1, Leg1a expressed in zebrafish embryos from injected mRNA (zebrafish) (UniProt A5PF61)
T1 sequence: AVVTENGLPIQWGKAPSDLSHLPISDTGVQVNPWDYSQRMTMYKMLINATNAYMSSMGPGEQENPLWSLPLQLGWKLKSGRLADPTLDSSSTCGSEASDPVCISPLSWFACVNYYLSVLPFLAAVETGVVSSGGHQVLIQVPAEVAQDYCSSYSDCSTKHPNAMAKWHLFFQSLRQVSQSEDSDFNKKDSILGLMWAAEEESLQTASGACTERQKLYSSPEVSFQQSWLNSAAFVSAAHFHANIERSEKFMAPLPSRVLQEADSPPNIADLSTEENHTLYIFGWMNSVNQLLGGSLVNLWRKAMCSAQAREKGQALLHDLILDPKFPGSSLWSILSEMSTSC
Assay: co-IP; zebrafish embryos co-injected with leg1a and fgfr3 mRNA at one-cell stage, harvested at 7 hpf, NP40 lysate; IP with the Leg1 antibody (mouse IgG as control), FGFR3 detected with an anti-FGFR3 antibody

FGFR3 expressed in zebrafish embryos from injected mRNA (receptor)
binding: binds
